# Some of the results follow.
# B1: il10ra_site1_normal_mot_HHH_b2_07442_000000239_0001_40_54_H_._HHH_b2_05222_af2_0001_0000400026_0000002_0 (protein)
# chain: SSSSSDESRRVYELLRRAAEADHEGDKEKAEEILEEAEELAEEGNNEVLAFVVEFLLRLVSSSSS
# B2: il10ra_site1_normal_mot_HHH_b1_03031_af2_000000117_0001_17_33_H_._HHH_b1_04005_af2_0001_0001200026_0000002_0_af2pred_0001 (protein)
# chain: SSSSSDEEERKRAAELLWLAARLGDEELVHRLLELAARYLLEGDPRYVEEMEQLVEEVEKSSSSS
# B3: il10ra_site1_normal_mot_b26a303360aa2756ef5b79665ce52f45_0001_000000179_0001_1_11_H_._HHH_b2_05702_af2_0001_0000300024_0000001_1_af2pred_0001 (protein)
# chain: SSSSSSESEEIFRLIREAAELAFRGDPRAEEVAEEALELAEEAGNLVARFAIEHLLRDLTSSSSS
# B4: il10ra_site1_normal_mot_HHH_b1_03262_af2_000000181_0001_43_57_H_._HHH_b1_05284_0001_0000100004_0000001_0 (protein)
# chain: SSSSSSEERAREAARFLLEAAKQIEDPEYVREALRFALHLARFANDEELEEEIERLLEEYSSSSS
# B5: il10ra_site1_normal_mot_HHH_b1_05357_000000034_0001_23_39_H_._HHH_b2_02453_0001_0000500021_0000001_0_af2pred_0001 (protein)
# chain: SSSSDVEEELEELLEEAKRIEDLDRAAYVLIRAFALATQRRDPELEEFVEEVAKEISEEGSSSSS
# B6: il10ra_site1_normal_mot_8756ee2cf497b5429c717dfc0c0bcfd6_0001_000000186_0001_1_13_H_._HHH_b2_04715_af2_0001_0000800036_0000001_0 (protein)
# chain: SSSSSDLEELFELLRRIAELLHEGDEEEAEELIERVKELAKELNNDVARFQAEYLERSLNSSSSS
# B7: il10ra_site1_normal_mot_HHH_b1_02062_000000185_0001_1_20_H_._HHH_b1_08647_0001_0000200022_0000001_0_af2pred_0001 (protein)
# chain: SSSSDLIERVKELLEEAIELLRRGNPEEAEKLLEEAEELVREAGDQNTLAVIRFLLERLKSSSSS
# B8: il10ra_site1_sap_16_mot_HHH_b2_00984_000000042_0001_1_20_H_._HHH_b1_04080_0001_0000500059_0000001_0_0001 (protein)
# chain: SSSSDLSQEIYEALKELIELVSENDDERFEELVEEIERLIEEAKSQLMEFVLRIIRRDFHSSSSS
# B9: il10ra_site1_sap_17_mot_HHH_b2_01310_000000089_0001_41_55_H_._HHH_b1_06780_af2_0001_0000200021_0000001_0_0001 (protein)
# chain: SSSSDEEKLEIIREAVENLFEQAEEKNSELARILIRQALKAAKLLGDPELAEEIEELLKQLSSSS
# B10: il10ra_site1_sap_22_mot_HHH_b1_07097_af2_000000269_0001_1_16_H_._HHH_b2_07321_af2_0001_0000200007_0000001_0_0001_af2pred_dldesign_0_af2pred (protein)
# chain: SSSSAEAEALFEETKKELERLLAAGKYQEAYDLLKEAIEELIAMGAPELARELANYFLELASSSS
# B11: il10ra_site1_normal_mot_HHH_b1_01821_000000158_0001_23_39_H_._HHH_b2_07952_0001_0000600024_0000001_0 (protein)
# chain: SSSSSDEEEREEIEELLEEAEKIEDPRRRNELLLEALRIALHAQNAELLQEIWEVFKELSSSSSS
# B12: il10ra_site1_sap_16_mot_HHH_b1_01307_000000115_0001_1_18_H_._HHH_b1_03429_0001_0000400030_0000001_0_0001_af2pred_0001 (protein)
# chain: SSSSSSREELIRRVAELLAEAARVSDEEEVEKLLEEARRLAEEANNPALEWLVRAAEERNSSSSS
# B13: il10ra_site1_sap_23_mot_HHH_b2_00441_000000147_0001_1_18_H_._HHH_b1_03163_0001_0000200008_0000001_0_0001 (protein)
# chain: SKLEEVEELLEELAKRDVVAISLLHALRADKEAGVPPEEILEFLKEVARRANSPFARELLKLLEK
# B14: il10ra_site1_normal_mot_HHH_b2_03220_af2_000000223_0001_23_40_H_._HHH_b2_04558_af2_0001_0001000054_0000001_0 (protein)
# chain: SSSSSSDNEEIWKLLREALHIPDPEEARKLVEEALELAEELGNELLAIQARFLERALGSSSSSSS
# B15: il10ra_site1_sap_25_mot_HHH_b1_05937_af2_000000262_0001_20_37_H_._HHH_b2_06195_af2_0001_0000800017_0000001_0_0001 (protein)
# chain: SSSSSDEEVEERVEELLERLHKVDPQEAYELLREAIELAAENNDPELQREIMRALREWMHSSSSS
# B16: il10ra_site1_normal_mot_HHH_b2_08144_af2_000000046_0001_38_52_H_._HHH_b1_01529_af2_0001_0000300029_0000001_0 (protein)
# chain: SSSSDEELRRVYELIREAARLHHEGNPEEARKVLEEAEELAEEANNELLLFQVEFMLRAVNSSSS
# B17: il10ra_site1_normal_mot_8756ee2cf497b5429c717dfc0c0bcfd6_0001_000000186_0001_1_13_H_._HHH_b1_05005_af2_0001_0000100006_0000001_0 (protein)
# chain: SSSDEAQRIVELIRLVVELLREGNKEEAEEVLEEAQELAEELGNDVFRVQLEYLRKLLERESSSS
# B18: il10ra_site1_sap_20_mot_HHH_b1_07286_af2_000000054_0001_1_19_H_._HHH_b2_02170_af2_0001_0000300005_0000001_0_0001 (protein)
# chain: SSSSDEEQQELNELVLRAFRLALRGNPEEARELLEEAEELAREVGDERMLKIVEDMLRSISSSSS
# Target: il10ra, Q13651
# Test: yeast display titration
row,Binder,apparent Kd
1,B1,inactive: no binding seen
2,B2,inactive: no binding seen
3,B3,inactive: no binding seen
4,B4,inactive: no binding seen
5,B5,inactive: no binding seen
6,B6,inactive: no binding seen
7,B7,inactive: no binding seen
8,B8,inactive: > 711 nM
9,B9,inactive: no binding seen
10,B10,inactive: no binding seen
11,B11,inactive: no binding seen
12,B12,inactive: no binding seen
13,B13,inactive: no binding seen
14,B14,inactive: no binding seen
15,B15,inactive: no binding seen
16,B16,inactive: no binding seen
17,B17,inactive: no binding seen
18,B18,inactive: no binding seen

# Taken from above.
# Under apparent Kd, B16 is entered as inactive: no binding seen
# Under apparent Kd, B4 is entered as inactive: no binding seen
